Measurements: PubChem BioAssay AID1671190 (National Center for Advancing Translational Sciences (NCATS), 2021)
Among all 580,000 compounds or so, about 6,100 (1.1%) were called active. Inconclusive means that the source gave no clear call. Such entries were picked first, then a sample of the others. Calls follow the shape of the dose curve; as a rule, active = well fitted inhibition curve with a large enough effect; inconclusive = small, poorly fitted or top-dose-only effect, or another doubt; inactive = no such curve, though single readings can be large or run the other way. Potencies beside an inconclusive call are fits to weak or partial responses and may not hold up.

Chains of the proteins cited; added tags and fusions are not shown. Lines headed by an entry give the natural chain unless they say otherwise; changes in a name come on top.
UniProt P18054: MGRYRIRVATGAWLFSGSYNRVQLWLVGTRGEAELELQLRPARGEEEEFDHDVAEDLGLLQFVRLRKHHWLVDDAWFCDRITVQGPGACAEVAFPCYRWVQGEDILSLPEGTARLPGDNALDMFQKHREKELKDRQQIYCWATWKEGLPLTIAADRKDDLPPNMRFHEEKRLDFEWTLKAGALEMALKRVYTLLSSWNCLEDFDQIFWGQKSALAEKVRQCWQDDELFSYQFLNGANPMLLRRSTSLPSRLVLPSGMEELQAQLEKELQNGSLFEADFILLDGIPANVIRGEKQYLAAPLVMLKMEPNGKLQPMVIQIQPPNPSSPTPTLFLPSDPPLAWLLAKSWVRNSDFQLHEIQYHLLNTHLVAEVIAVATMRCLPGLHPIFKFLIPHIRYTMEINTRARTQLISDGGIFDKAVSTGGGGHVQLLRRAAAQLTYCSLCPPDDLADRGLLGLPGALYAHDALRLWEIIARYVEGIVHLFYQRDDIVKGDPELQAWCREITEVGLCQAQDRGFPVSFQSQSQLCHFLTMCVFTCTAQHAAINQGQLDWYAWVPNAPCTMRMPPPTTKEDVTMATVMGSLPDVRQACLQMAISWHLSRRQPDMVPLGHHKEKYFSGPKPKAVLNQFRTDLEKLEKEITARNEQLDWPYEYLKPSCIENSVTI

target: Polyunsaturated fatty acid lipoxygenase ALOX12 (Homo sapiens) (UniProt P18054); experiment: Primary qHTS assay for inhibitors of human arachidonate 12S-lipoxygenase (ALOX12): Round 2; conditions: purified 12hLO, xylenol orange hydroperoxide absorbance; activity change, negative = inhibition: at 108 µM (top of the series) unless noted
Method in brief: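 Purified human 12hLO (150 nM final) in 25 mM Hepes, 0.01% Triton X-100, pH 7.0 was preincubated 15 min at room temperature with compound. Then 40 uM arachidonic acid was added, 30 min. Hydroperoxide was read by Fe-XO absorbance ratio 573/405 nm.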
% is scaled to controls: 0 for no effect and ±100 for the full control effect; potency is read from the fitted curve at half-maximal effect.

| SMILES | Potency | activity change, negative = inhibition |
| --- | --- | --- |
| COc1ccc(N2Cc3cccc(C(=O)Nc4ccc(C(C)C)cc4)c3C2=O)cc1 | inconclusive: 50.1 µM [inhibitor, partial curve, poor fit] |  |
| O=C1[C@@H]2C[C@@H](O)CN2C2(CN(Cc3cccc(OC(F)(F)F)c3)C2)C(=O)N1Cc1ccccc1F | inconclusive: 15.8 µM [inhibitor, partial curve, poor fit] |  |
| O=C(COC(=O)c1cc2c(s1)CCC2)NC(=O)NC1CCCC1 | inconclusive: 50.1 µM [inhibitor, partial curve, poor fit] |  |
| Cc1ccc(C2=NC3(CCN(C(=O)c4ccc5[nH]ccc5c4)CC3)ON2)cc1 |  | inactive: 1.53% |
| CCN(C(=S)Nc1cccc2ccccc12)c1ccccc1 | inconclusive: 44.7 µM [inhibitor, partial curve, poor fit] |  |
| Cc1cccc(-n2c(C)cc(C(=S)N3CCOCC3)c2C)c1C | inconclusive: 89.1 µM [inhibitor, partial curve, poor fit] |  |
| COc1ccc(C(=O)C(OC(=O)c2ccccc2)c2ccccc2)cc1 (configuration not stated) |  | inactive: -19.3% |
| COc1ccc(N2CCN(C(=O)c3cccc(N4C(=O)C5CC=CC(C)C5C4=O)c3)CC2)cc1 (configuration not stated) | inconclusive: 44.7 µM [inhibitor, partial curve, poor fit] |  |
| Cc1c(Cl)cccc1NC(=S)NN1CCOCC1 | inconclusive: 50.1 µM [inhibitor, single point] |  |
| CCCCCCN1CCN(C2CN(Cc3cn(Cc4cccc(C(F)(F)F)c4)nn3)S(=O)(=O)C2)CC1 (configuration not stated) | inconclusive: 31.6 µM [inhibitor, partial curve, poor fit] |  |
| N#C/C(=C\c1cn(-c2ccccc2)nc1-c1cc2ccccc2o1)c1nc2ccccc2[nH]1 |  | inactive: 15.8% |
| COc1ccc(S(=O)(=O)NCC2CCC(C(=O)NCC(=O)N3CCc4ccccc4C3)CC2)cc1 (configuration not stated) | inconclusive: 100 µM [inhibitor, single point] |  |
| CCOc1ccc2c(c1)-c1c(ssc1=S)C(C)(C)N2C(=O)CSC1=NCCS1 | inconclusive: 44.7 µM [inhibitor, partial curve] |  |
| Fc1ccc(NC(=S)N2CCn3cccc3C2c2cccnc2)cc1 (configuration not stated) | inconclusive: 100 µM [inhibitor, single point] |  |
| CC(C)[C@H](NS(=O)(=O)c1ccccc1)C(=O)OCC(=O)N1N=C(c2ccc(Cl)cc2)CC1c1ccco1 (some centres not stated) | active: 39.8 µM |  |
| CC[C@@H]1CC2=C(C(=O)OC(C)(C)O2)[C@H](c2ccc(Cl)cc2)O1 | inconclusive: 89.1 µM [inhibitor, single point] |  |
| N#Cc1c(SCc2cccc(Cl)c2)sc(C(=O)c2ccccc2)c1N | inconclusive: 44.7 µM [inhibitor, partial curve, poor fit] |  |

No new results follow: four of the compounds above.

| SMILES | Potency | activity change, negative = inhibition |
| --- | --- | --- |
| O=C(COC(=O)c1cc2c(s1)CCC2)NC(=O)NC1CCCC1 | inconclusive: 50.1 µM [inhibitor, partial curve, poor fit] |  |
| Cc1ccc(C2=NC3(CCN(C(=O)c4ccc5[nH]ccc5c4)CC3)ON2)cc1 |  | inactive: 1.53% |
| CCN(C(=S)Nc1cccc2ccccc12)c1ccccc1 | inconclusive: 44.7 µM [inhibitor, partial curve, poor fit] |  |
| Cc1cccc(-n2c(C)cc(C(=S)N3CCOCC3)c2C)c1C | inconclusive: 89.1 µM [inhibitor, partial curve, poor fit] |  |
